## Cleaved PARP in drug-treated melanoma cells

Compounds and concentrations:
tanespimycin: C=CCNC1=C2C[C@@H](C)C[C@H](OC)[C@H](O)[C@@H](C)/C=C(\C)[C@H](OC(N)=O)[C@@H](OC)/C=C\C=C(/C)C(=O)NC(=CC1=O)C2=O at 0.01 µM
OSU-03012: NCC(=O)Nc1ccc(-n2nc(C(F)(F)F)cc2-c2ccc3c(ccc4ccccc43)c2)cc1 at 5 µM
FH535: Cc1cc([N+](=O)[O-])ccc1NS(=O)(=O)c1cc(Cl)ccc1Cl at 5 µM
LFM-A13: C/C(O)=C(\C#N)C(=O)Nc1cc(Br)ccc1Br at 10 µM
selumetinib: Cn1cnc2c(F)c(Nc3ccc(Br)cc3Cl)c(C(=O)NOCCO)cc21 at 0.075 µM
pazopanib: Cc1ccc(Nc2nccc(N(C)c3ccc4c(C)n(C)nc4c3)n2)cc1S(N)(=O)=O at 2 µM
dovitinib: CN1CCN(c2ccc3nc(-c4c(N)c5c(F)cccc5[nH]c4=O)[nH]c3c2)CC1 at 0.5 µM
decitabine: Nc1ncn([C@H]2C[C@H](O)[C@@H](CO)O2)c(=O)n1 at 0.5 µM

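Human melanoma cell lines in 1,536-well plates were treated with a pair of drugs for 72 h, then fixed, stained and imaged. Each value is the cleaved-PARP-positive fraction of nuclei relative to DMSO-treated wells, in %, so that 100 equals the control and higher values mean more apoptosis. Concentrations were fixed for each drug; these are the higher of two levels. The file gives one value for each pair and line, without errors, so small differences may be noise. The marker varies much from line to line, for technical or biological reasons.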
This is part of the screen, not chosen by result.

| Pair | COLO 792 | SK-MEL-5 | SK-MEL-28 | MEL-HO | C32 | LOX IMVI | COLO 800 | SK-MEL-30 | UACC-62 | RVH-421 |
|---|---|---|---|---|---|---|---|---|---|---|
| FH535 + dovitinib | 215 | 56.1 | 198 | 137 | 129 | 117 | 147 | 61.5 | 110 | 24.5 |
| selumetinib + pazopanib | 114 | 238 | 132 | 103 | 11.0 | 53.1 | 69.8 | 117 | 148 | 231 |
| FH535 + OSU-03012 | 171 | 209 | 1560 | 81.2 | 193 | 23.8 | 162 | 1860 | 83.4 | 269 |
| tanespimycin + dovitinib | 118 | 170 | 42.4 | 101 | 1140 | 200 | 230 | 123 | 190 | 62.8 |
| FH535 + selumetinib | 176 | 212 | 137 | 170 | 110 | 127 | 94.8 | 162 | 281 | 150 |
| pazopanib + FH535 | 241 | 191 | 144 | 215 | 195 | 208 | 188 | 143 | 181 | 162 |
| pazopanib + LFM-A13 | 61.1 | 144 | 89.2 | 145 | 127 | 131 | 339 | 60.1 | 228 | 338 |
| decitabine + LFM-A13 | 128 | 90.9 | 105 | 400 | 88.9 | 10.6 | 290 | 130 | 246 | 118 |
| FH535 + tanespimycin | 191 | 249 | 277 | 143 | 971 | 124 | 56.8 | 104 | 251 | 55.7 |
| OSU-03012 + decitabine | 30.4 | 204 | 419 | 67.7 | 54.1 | 82.1 | 102 | 950 | 116 | 125 |
| dovitinib + pazopanib | 229 | 137 | 83.0 | 201 | 120 | 91.0 | 57.3 | 83.8 | 114 | 211 |
| selumetinib + tanespimycin | 166 | 202 | 90.5 | 241 | 1220 | 54.0 | 54.4 | 308 | 332 | 119 |
| LFM-A13 + dovitinib | 75.7 | 178 | 167 | 217 | 174 | 148 | 189 | 83.6 | 189 | 118 |
| decitabine + pazopanib | 101 | 150 | 109 | 103 | 99.4 | 84.1 | 136 | 96.7 | 188 | 118 |
| dovitinib + OSU-03012 | 107 | 236 | 463 | 95.4 | 158 | 104 | 364 | 784 | 237 | 60.0 |
| OSU-03012 + pazopanib | 63.8 | 213 | 931 | 78.4 | 65.8 | 70.2 | 212 | 1960 | 188 | 99.8 |
| decitabine + tanespimycin | 135 | 223 | 77.0 | 49.4 | 1070 | 151 | 118 | 120 | 298 | 146 |
| OSU-03012 + tanespimycin | 248 | 411 | 330 | 84.4 | 3270 | 65.5 | 165 | 411 | 131 | 138 |
| dovitinib + selumetinib | 285 | 505 | 116 | 151 | 204 | 170 | 431 | 226 | 273 | 155 |
| selumetinib + OSU-03012 | 151 | 334 | 1180 | 154 | 150 | 72.2 | 104 | 930 | 176 | 84.0 |
| selumetinib + decitabine | 275 | 347 | 102 | 58.1 | 231 | 123 | 99.6 | 99.4 | 239 | 151 |
| tanespimycin + LFM-A13 | 73.5 | 156 | 99.6 | 90.7 | 666 | 98.5 | 106 | 131 | 210 | 83.3 |
| selumetinib + LFM-A13 | 86.4 | 144 | 340 | 47.5 | 185 | 180 | 215 | 174 | 502 | 303 |

The last 3 entries again:

Pair	COLO 792	SK-MEL-5	SK-MEL-28	MEL-HO	C32	LOX IMVI	COLO 800	SK-MEL-30	UACC-62	RVH-421
selumetinib + decitabine	275	347	102	58.1	231	123	99.6	99.4	239	151
tanespimycin + LFM-A13	73.5	156	99.6	90.7	666	98.5	106	131	210	83.3
selumetinib + LFM-A13	86.4	144	340	47.5	185	180	215	174	502	303

Data from the primary screen of doi:10.1371/journal.pone.0140310, rounded.